Consider 15 compounds from PubChem BioAssay AID248 (DTP/NCI, 2004).

This assay concerns L1210 leukemia ip in BDF1 mice, survival T/C. Nature of the assay: NCI In Vivo Anticancer Drug Screen. Data for tumor model L1210 Leukemia (intraperitoneal) in B6D2F1 (BDF1) mice. Particulars: T/C endpoint: mean survival time, higher T/C = longer survival.
[1] abbreviates: dose: 100.0 mg/kg/injection, schedule: Q04DX002 (ip), vehicle: saline with Tween-80.
[2] abbreviates: dose: 200.0 mg/kg/injection, schedule: Q04DX002 (ip), vehicle: saline with Tween-80.
The mark [3] stands for this setting: dose: 400.0 mg/kg/injection, schedule: Q04DX002 (ip), vehicle: saline with Tween-80.
Setting [4] is: dose: 12.5 mg/kg/injection, schedule: Q04DX002 (ip), vehicle: saline with Tween-80.
[5] abbreviates: dose: 100.0 mg/kg/injection, schedule: Q01DX001 (ip), vehicle: DMSO.
[6] abbreviates: dose: 100.0 mg/kg/injection, schedule: Q01DX001 (ip), vehicle: saline.
Where [7] appears, read: dose: 200.0 mg/kg/injection, schedule: Q01DX001 (ip), vehicle: saline.

SMILES strings stand for the structures. The list is a part of this screen's results and no random one: it covers a few groups of compounds. Other doses and runs of a compound may be missing. T/C is the treated group as % of the vehicle group. Some doses have a count of surviving animals in place of a T/C: the source files T/C as zero there, which appears to mark a toxic dose or a test without result, not a measured value. Some survivor counts are full or nearly so, which does not show that the dose was tolerated: the source hardly ever lists a survival T/C far under the control, and the zero likely stands for such cases as well. Counts of survivors are from the toxicity check (mostly the fifth day) where no day follows; animals may have died later. Schedules are NCI's codes, taken here to give the interval after Q, in days (D) or hours (H), and the number of doses after X. For survival time, this PubChem deposit counts one and a half times the control or more as active, and values a quarter to a half above the control carry no call in these data; other NCI protocols may use other cut-offs. Some entries show no survivor count and are marked so; the dose need not have been tolerated. Some T/C values are followed by the survivors on the day toxicity was checked, most often the fifth; where neither a count nor a note follows, no animal had died by that day. Some complexes appear as separate parts, the way the source draws them; their charges need not add up.

Take `CN1CC2CC(C1)CN(C)C2.F[P-](F)(F)(F)(F)F`: the T/C is, setting by setting: (dose: 100.0 mg/kg/injection, schedule: Q04DX003 (ip), vehicle: saline with Tween-80) 100 % of control; (dose: 200.0 mg/kg/injection, schedule: Q04DX003 (ip), vehicle: saline with Tween-80) 100 % of control; (dose: 400.0 mg/kg/injection, schedule: Q04DX003 (ip), vehicle: saline with Tween-80) 102 % of control [5 of 6 alive].

As for `CC1CCCCN1.C[CH2][Sn]([Br])([CH2]C)[CH2]C`, the survivor count was 0 of 3 under setting [1], 0 of 3 under setting [2] and 0 of 3 under setting [3].

With `CCCc1cccc2nc(-c3ccccc3)oc12.O=C1c2cc([N+](=O)[O-])ccc2-c2c1cc([N+](=O)[O-])cc2[N+](=O)[O-]`, the T/C runs as follows: (dose: 6.25 mg/kg/injection, schedule: Q04DX002 (ip), vehicle: saline with Tween-80) 88 % of control [survivor count not shown]; under setting [4], 94 % of control [survivor count not shown]; (dose: 25.0 mg/kg/injection, schedule: Q04DX002 (ip), vehicle: saline with Tween-80) 98 % of control [survivor count not shown]; (dose: 100.0 mg/kg/injection, schedule: Q01DX001 (ip), vehicle: saline with Tween-80) 86 % of control [survivor count not shown].

On to `O=[N+]([O-])c1ccc(NCCCl)c([N+](=O)[O-])c1`, for which the T/C reads like this: (dose: 100.0 mg/kg/injection, schedule: Q04DX002 (ip), vehicle: Klucel (hydroxypropylcellulose) (HPC)) 100 % of control; (dose: 200.0 mg/kg/injection, schedule: Q04DX002 (ip), vehicle: Klucel (hydroxypropylcellulose) (HPC)) 95 % of control; (dose: 400.0 mg/kg/injection, schedule: Q04DX002 (ip), vehicle: Klucel (hydroxypropylcellulose) (HPC)) 109 % of control [2 of 3 alive].

In the case of `NC(=O)CNc1ccc([As](=O)(O)O)cc1`, the T/C is 101 % of control (dose: 100.0 mg/kg/injection, schedule: Q01DX001 (ip), vehicle: Klucel (hydroxypropylcellulose) (HPC)); 93 % of control (dose: 200.0 mg/kg/injection, schedule: Q01DX001 (ip), vehicle: Klucel (hydroxypropylcellulose) (HPC)); 93 % of control (dose: 400.0 mg/kg/injection, schedule: Q01DX001 (ip), vehicle: Klucel (hydroxypropylcellulose) (HPC)).

As for `Nc1cc([As]=O)ccc1O` (stereo not given), the T/C is 103 % of control (dose: 9.5 mg/kg/injection, schedule: Q01DX001 (ip), vehicle: other); 91 % of control (dose: 19.0 mg/kg/injection, schedule: Q01DX001 (ip), vehicle: other); 105 % of control (dose: 38.0 mg/kg/injection, schedule: Q01DX001 (ip), vehicle: other).

`O=P(Cl)(NCCCl)N(CCCl)CCCl` (stereo not given): the T/C is 134 % of control (dose: 25.0 mg/kg/injection, schedule: Q01DX001 (ip), vehicle: DMSO); 123 % of control (dose: 50.0 mg/kg/injection, schedule: Q01DX001 (ip), vehicle: DMSO); 95 % of control [4 of 6 alive] under setting [5]. The survivor count is, setting by setting: under setting [5], 4 of 6; (dose: 200.0 mg/kg/injection, schedule: Q01DX001 (ip), vehicle: DMSO) 0 of 6; (dose: 400.0 mg/kg/injection, schedule: Q01DX001 (ip), vehicle: DMSO) 0 of 6.

Regarding `CN(C)N(C)P(N)(Cl)(c1ccccc1)c1ccccc1`, the T/C (dose: 5.0 mg/kg/injection, schedule: Q01DX001 (ip), vehicle: saline) was 101 % of control; the T/C (dose: 10.0 mg/kg/injection, schedule: Q01DX001 (ip), vehicle: saline) was 97 % of control; the T/C (dose: 20.0 mg/kg/injection, schedule: Q01DX001 (ip), vehicle: saline) was 95 % of control; the T/C (dose: 40.0 mg/kg/injection, schedule: Q01DX001 (ip), vehicle: saline) is 105 % of control. In addition, the survivor count runs as follows: (dose: 80.0 mg/kg/injection, schedule: Q01DX001 (ip), vehicle: saline) 0 of 6; under setting [6], 1 of 4; under setting [7], 0 of 4; (dose: 400.0 mg/kg/injection, schedule: Q01DX001 (ip), vehicle: saline) 0 of 4.

With `ClCCNc1nc2ccccc2c2ccccc12`, the T/C was 109 % of control (dose: 10.0 mg/kg/injection, schedule: Q04DX003 (ip), vehicle: Klucel (hydroxypropylcellulose) (HPC)); 104 % of control (dose: 18.7 mg/kg/injection, schedule: Q01DX009 (ip), vehicle: carboxymethylcellulose (CMC)); 106 % of control (dose: 20.0 mg/kg/injection, schedule: Q04DX003 (ip), vehicle: Klucel (hydroxypropylcellulose) (HPC)); 107 % of control (dose: 37.5 mg/kg/injection, schedule: Q01DX009 (ip), vehicle: carboxymethylcellulose (CMC)); 105 % of control (dose: 40.0 mg/kg/injection, schedule: Q04DX003 (ip), vehicle: Klucel (hydroxypropylcellulose) (HPC)); 113 % of control (dose: 50.0 mg/kg/injection, schedule: Q01DX009 (ip), vehicle: Klucel (hydroxypropylcellulose) (HPC)). In addition, the T/C (dose: 75.0 mg/kg/injection, schedule: Q01DX001 (ip), vehicle: carboxymethylcellulose (CMC)) was 106 % of control and the T/C (dose: 75.0 mg/kg/injection, schedule: Q01DX009 (ip), vehicle: carboxymethylcellulose (CMC)) was 126 % of control [5 of 6 alive]. The survivor count is on record as 6 of 6 (dose: 50.0 mg/kg/injection, schedule: Q04DX003 (ip), vehicle: Klucel (hydroxypropylcellulose) (HPC)); 4 of 6 (dose: 75.0 mg/kg/injection, schedule: Q01DX009 (ip), vehicle: Klucel (hydroxypropylcellulose) (HPC)); 5 of 6 (dose: 100.0 mg/kg/injection, schedule: Q04DX003 (ip), vehicle: Klucel (hydroxypropylcellulose) (HPC)); 0 of 6 (dose: 112.5 mg/kg/injection, schedule: Q01DX009 (ip), vehicle: Klucel (hydroxypropylcellulose) (HPC)); 0 of 6 (dose: 150.0 mg/kg/injection, schedule: Q01DX001 (ip), vehicle: carboxymethylcellulose (CMC)); 0 of 6 (dose: 200.0 mg/kg/injection, schedule: Q04DX003 (ip), vehicle: Klucel (hydroxypropylcellulose) (HPC)). For the same compound, the survivor count was 0 of 6 (dose: 300.0 mg/kg/injection, schedule: Q01DX001 (ip), vehicle: carboxymethylcellulose (CMC)) and 0 of 6 (dose: 400.0 mg/kg/injection, schedule: Q04DX003 (ip), vehicle: Klucel (hydroxypropylcellulose) (HPC)).

As to `CCOP(=S)(NC(=S)Nc1ccccc1NC(=S)NP(=S)(OCC)OCC)OCC`, the T/C is 97 % of control (dose: 50.0 mg/kg/injection, schedule: Q01DX009 (ip), vehicle: saline); 94 % of control (dose: 100.0 mg/kg/injection, schedule: Q01DX009 (ip), vehicle: saline); 97 % of control (dose: 200.0 mg/kg/injection, schedule: Q01DX009 (ip), vehicle: saline).

For `COc1n[nH]c(N=[N+]=[N-])n1`, the T/C under setting [1] is 104 % of control, the T/C under setting [2] was 101 % of control and the T/C under setting [3] was 93 % of control.

As to `O=P(NC(=S)NN1CCCCC1)(Oc1ccccc1)Oc1ccccc1`, the T/C was 106 % of control (dose: 100.0 mg/kg/injection, schedule: Q01DX009 (ip), vehicle: carboxymethylcellulose (CMC)); 88 % of control (dose: 200.0 mg/kg/injection, schedule: Q01DX009 (ip), vehicle: carboxymethylcellulose (CMC)); 91 % of control (dose: 400.0 mg/kg/injection, schedule: Q01DX009 (ip), vehicle: carboxymethylcellulose (CMC)).

As to `CC(C)(C)C1COP(C)(=O)OC1` (stereo not given), the T/C under setting [4] is 108 % of control [survivor count not shown].

For `C=C1N2CCC(CC2)C1(OC(=O)CC)c1ccccc1` (stereo not given), the T/C runs as follows: (dose: 50.0 mg/kg/injection, schedule: Q01DX001 (ip), vehicle: saline) 103 % of control; under setting [6], 100 % of control [5 of 6 alive]. The survivor count under setting [7] was 2 of 6.

Take `CN1P(Cl)(Cl)(Cl)N(C)P1(Cl)(Cl)Cl`: the T/C was 93 % of control under setting [1], 100 % of control under setting [2] and 100 % of control under setting [3].
